## Screening data, single-dose tests

Protein sequences, listed by entry. Tags and fused reporters are not part of them. Residues count along the entry.
UniProt Q4DA54, 1-478: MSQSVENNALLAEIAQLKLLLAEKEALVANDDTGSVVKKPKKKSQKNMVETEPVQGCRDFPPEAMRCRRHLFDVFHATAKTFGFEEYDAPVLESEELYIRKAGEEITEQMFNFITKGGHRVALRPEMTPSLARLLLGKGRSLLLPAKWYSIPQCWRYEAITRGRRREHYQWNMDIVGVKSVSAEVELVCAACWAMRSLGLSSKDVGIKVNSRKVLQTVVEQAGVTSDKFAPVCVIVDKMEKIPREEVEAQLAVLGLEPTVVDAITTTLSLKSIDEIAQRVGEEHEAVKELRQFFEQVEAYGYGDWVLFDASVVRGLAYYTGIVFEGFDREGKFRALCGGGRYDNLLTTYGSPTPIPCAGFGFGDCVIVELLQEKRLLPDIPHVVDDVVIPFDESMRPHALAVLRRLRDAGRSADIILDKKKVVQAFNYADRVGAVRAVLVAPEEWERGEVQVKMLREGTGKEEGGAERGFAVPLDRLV
UniProt P9WNZ1, whole entry: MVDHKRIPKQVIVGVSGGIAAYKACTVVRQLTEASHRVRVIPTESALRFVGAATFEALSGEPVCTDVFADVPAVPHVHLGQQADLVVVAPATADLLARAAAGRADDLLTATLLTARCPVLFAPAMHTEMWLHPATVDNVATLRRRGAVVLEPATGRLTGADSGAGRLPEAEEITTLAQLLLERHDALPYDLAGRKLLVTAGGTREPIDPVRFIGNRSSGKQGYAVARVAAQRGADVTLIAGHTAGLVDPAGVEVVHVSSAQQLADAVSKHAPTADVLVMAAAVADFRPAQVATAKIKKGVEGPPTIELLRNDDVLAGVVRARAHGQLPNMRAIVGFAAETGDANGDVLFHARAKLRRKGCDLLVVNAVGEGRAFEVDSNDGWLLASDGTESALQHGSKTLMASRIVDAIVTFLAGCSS

The values are deposited in ChEMBL (CHEMBL3988442, “University of Dundee, Small-Polar-MMV Screening Library” (2021)).

A: 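Assay of Toxoplasma gondii numbers, read through their beta-galactosidase reporter with a colour substrate. Concentration: 10 µM. Higher reads as fewer parasites (inferred from which compounds were picked for retests). Size under these conditions: about 67,000 compounds, about 260 of them at 50% or above in at least one test.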
B: 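Enzyme assay of histidyl-tRNA synthetase; the read-out is not stated. Target: Histidine-tRNA ligase, Trypanosoma cruzi CL Brener (UniProt Q4DA54). Compounds at 30 µM. Direction is inferred from retests: higher values go with stronger inhibition. Of about 69,000 compounds tested this way, about 31 (0.045%) reached 50% or more in at least one test.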
C: 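Coenzyme A biosynthesis protein CoaBC, Mycobacterium tuberculosis (UniProt P9WNZ1). Enzyme assay of CoaBC with a phosphate dye (Biomol Green) read at 650 nm. Compounds at 30 µM. Higher reads as stronger inhibition, judged from the few compounds that gave an IC50. Most strong results did not repeat in a second test. Size under these conditions: about 67,000 compounds, about 40 of them at 50% or above in at least one test.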
D: 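Cell assay of Leishmania donovani living inside macrophages; the read-out is not stated. Tested at 30 µM. Direction is inferred from retests: higher values go with stronger inhibition. Of about 69,000 compounds tested this way, about 1,000 (1.5%) reached 50% or more in at least one test.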

Each number is a percent effect as filed. The controls that fix the scale are not given in the record; negative values are as filed. Compounds were drawn at random from those tested, without regard to their results. Two or more numbers in one place are separate tests of the same structure; such repeats can differ widely. A dash means the value is not listed here; it may have been measured.

- c1cnc(N2CCN(CCn3ccnc3-c3ccncc3)CC2)nc1 | A: 3.643%; B: -0.8%; C: 8.442%; D: 7.884%
- CC(=O)N1CC(=O)N(c2ccsc2)CC12CCN(Cc1ccccn1)C2.O=C(O)C(F)(F)F (stereo not drawn) | A: 20.62%; D: 22.25%
- CN1CCOCC12CCN(Cc1nccs1)CC2 | A: 19.4%; B: -2.151%; C: 17.12%; D: -4.09% & 12.36%
- Cc1cc(Br)oc1C(=O)N1CCC(N(C)C)CC1 | A: -14.61%; B: 3.093%; C: -1.222%; D: -37.2%
- CCN(CC1CCOC1)C(=O)CSCC(=O)Nc1ccc(C)cc1 (stereo not drawn) | A: -5.29%; B: 1.064%; C: 4.016%; D: 0.3839%
- [H][C@@]12CS(=O)(=O)C[C@]1([H])N(Cc1cc(F)cc(Cl)c1)CCN2CCO | A: 1.322%; D: 8.822%
- Cc1ncsc1C(=O)N(C)Cc1cccc(Cl)c1 | A: -5.787%; B: 3.422%; C: 1.064%; D: 14.69%
- CCc1nnc2n1CCN(Cc1noc(-c3cccc(C)c3)n1)C2 | A: 2.301%; B: -2.02%; C: 4.862%; D: -33.26%
- Cc1cc2ncn(C[C@]3(O)CCCN4CCCC[C@@H]43)c2cc1C | B: 4.478%; C: -1.481%
- CC(=O)Nc1ccc(Oc2cc(C)nc(C3CCCNC3)c2)cc1.Cl (stereo not drawn) | A: 12.02%; D: -27.37%
- Cc1nc(C)n(CC2CCCCN2CC(=O)Nc2cc(C)on2)n1 (stereo not drawn) | A: -27.83%; B: 3.152%; C: 4.348%; D: -0.2992%
- O=C(O)C(F)(F)F.[H][C@@]12COC[C@]1(COCC(=O)N(C)C)CN(Cc1nc(C)cs1)C2 | A: -8.466%; D: -11.94%
- CCOc1ccccc1OC1CCN(C(=O)c2csnn2)CC1 | A: 4.435%; B: 5.263%; C: 5.357%; D: -2.576%
- COCc1ncn2c1CN(S(=O)(=O)Cc1ccc(C)cc1)CC2.O=C(O)C(F)(F)F | A: -0.3014%; D: 11.79%
- Cc1ccc(NC(=O)N2C[C@H]3CC[C@@H]2CN(Cc2cscn2)C3)cc1 | B: 0%; C: 4.386%
- Cn1ccc(C(=O)N2CCOC(c3ccccc3)C2)cc1=O (stereo not drawn) | A: -11.69%; B: 5.556%; C: -1.261%; D: -5.62%
- O=C(C1=COCCO1)N1CC(Oc2nc3c(Cl)cccc3s2)C1 | A: 9.733%; B: -1.554%; C: 8.866%; D: 7.284%
- Fc1ccccc1Cc1noc(CN2CC[C@@H]3CCCC[C@H]3C2)n1 | B: 3.139%; C: 3.553%
- Cc1ccc(C(=O)Cc2c(Cl)nc3n(C)c(=O)n(C)c(=O)n23)cc1 | A: 16.18%; B: 8.911%; C: 1.205%; D: 13.69%
- O=C(CCn1cnnn1)N1CCCC(CO)(CCCc2ccccc2)C1 (stereo not drawn) | A: 10.06%; B: 6.173%; C: 2.086%; D: -30.35%
- [H][C@]12CCN(c3cnccn3)C[C@]1(COC)CC[C@@H](N1CCOCC1)C2 | A: -2.024%; D: 1.287%
- COc1cccc(OCC2CCCN(C(=O)c3cnn(C)c3)C2)c1 (stereo not drawn) | A: 5.243%; B: 0%; C: 5.122%; D: 10.71%
- O=C(CCC(F)(F)F)N1CCN(Cc2ccncc2)[C@@H]2CS(=O)(=O)C[C@@H]21 | B: -3.636%; C: 1.022%
- O=C(O)C(F)(F)F.O=C(O)C(F)(F)F.[H][C@]12CCN(c3ccccc3)C[C@@]1([H])OCCN(Cc1ccncc1)C2 | A: 0.7559%; D: 43.84%
- Cc1nc(CC(=O)NCc2csc(N3CCCC3)n2)cs1 | A: -6.671%; B: 7.447%; C: 4.016%; D: 9.496%

For reference, 3 entries once more:

| Compound | A | B | C | D |
|---|---|---|---|---|
| `CCOc1ccccc1OC1CCN(C(=O)c2csnn2)CC1` | 4.435% | 5.263% | 5.357% | -2.576% |
| `CCN(CC1CCOC1)C(=O)CSCC(=O)Nc1ccc(C)cc1` (stereo not drawn) | -5.29% | 1.064% | 4.016% | 0.3839% |
| `O=C(O)C(F)(F)F.[H][C@@]12COC[C@]1(COCC(=O)N(C)C)CN(Cc1nc(C)cs1)C2` | -8.466% | - | - | -11.94% |